Measurements: the supplement of paper PMC11006884
The entries are a selection whose mix differs from that of the whole data set. Single values of this set are uncertain.

Sequences of proteins named here, by UniProt entry; tags and fusion partners are left off. A change or cut given only in a name is not applied to a line headed by its entry.
UniProt Q15424: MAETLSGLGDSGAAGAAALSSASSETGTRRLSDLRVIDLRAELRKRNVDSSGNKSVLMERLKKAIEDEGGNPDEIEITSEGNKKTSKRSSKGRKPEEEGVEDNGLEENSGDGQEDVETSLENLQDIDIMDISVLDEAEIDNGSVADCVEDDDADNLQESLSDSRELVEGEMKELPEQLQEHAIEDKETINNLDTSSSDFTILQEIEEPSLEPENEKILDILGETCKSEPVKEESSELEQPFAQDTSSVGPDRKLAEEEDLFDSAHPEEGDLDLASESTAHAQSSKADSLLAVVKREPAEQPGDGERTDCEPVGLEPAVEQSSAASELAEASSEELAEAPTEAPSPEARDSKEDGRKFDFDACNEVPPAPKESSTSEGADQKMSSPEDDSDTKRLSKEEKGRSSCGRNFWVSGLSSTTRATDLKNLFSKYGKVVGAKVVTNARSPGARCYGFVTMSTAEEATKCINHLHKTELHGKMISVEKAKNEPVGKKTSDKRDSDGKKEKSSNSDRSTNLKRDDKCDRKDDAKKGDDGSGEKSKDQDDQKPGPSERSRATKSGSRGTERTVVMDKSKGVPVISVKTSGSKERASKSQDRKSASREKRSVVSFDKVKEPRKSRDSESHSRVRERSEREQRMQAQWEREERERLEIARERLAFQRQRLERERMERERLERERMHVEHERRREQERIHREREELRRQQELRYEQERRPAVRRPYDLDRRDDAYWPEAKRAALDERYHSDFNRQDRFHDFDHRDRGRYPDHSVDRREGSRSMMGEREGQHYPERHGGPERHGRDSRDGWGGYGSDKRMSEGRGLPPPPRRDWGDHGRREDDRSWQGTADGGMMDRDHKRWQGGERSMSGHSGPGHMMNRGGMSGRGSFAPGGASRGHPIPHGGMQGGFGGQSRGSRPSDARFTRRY
UniProt Q15427: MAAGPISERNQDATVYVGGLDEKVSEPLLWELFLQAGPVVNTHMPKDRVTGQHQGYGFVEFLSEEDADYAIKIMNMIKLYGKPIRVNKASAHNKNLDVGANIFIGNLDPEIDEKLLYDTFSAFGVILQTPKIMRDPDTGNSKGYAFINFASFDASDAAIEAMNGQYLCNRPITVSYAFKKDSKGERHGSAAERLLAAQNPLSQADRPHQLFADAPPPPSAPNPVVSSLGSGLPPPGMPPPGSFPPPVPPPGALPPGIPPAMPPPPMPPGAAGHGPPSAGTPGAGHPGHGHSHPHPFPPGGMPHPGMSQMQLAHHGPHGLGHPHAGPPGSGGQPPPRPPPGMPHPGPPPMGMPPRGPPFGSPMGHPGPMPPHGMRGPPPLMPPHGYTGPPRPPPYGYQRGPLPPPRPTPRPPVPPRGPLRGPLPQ
UniProt Q16881, whole entry: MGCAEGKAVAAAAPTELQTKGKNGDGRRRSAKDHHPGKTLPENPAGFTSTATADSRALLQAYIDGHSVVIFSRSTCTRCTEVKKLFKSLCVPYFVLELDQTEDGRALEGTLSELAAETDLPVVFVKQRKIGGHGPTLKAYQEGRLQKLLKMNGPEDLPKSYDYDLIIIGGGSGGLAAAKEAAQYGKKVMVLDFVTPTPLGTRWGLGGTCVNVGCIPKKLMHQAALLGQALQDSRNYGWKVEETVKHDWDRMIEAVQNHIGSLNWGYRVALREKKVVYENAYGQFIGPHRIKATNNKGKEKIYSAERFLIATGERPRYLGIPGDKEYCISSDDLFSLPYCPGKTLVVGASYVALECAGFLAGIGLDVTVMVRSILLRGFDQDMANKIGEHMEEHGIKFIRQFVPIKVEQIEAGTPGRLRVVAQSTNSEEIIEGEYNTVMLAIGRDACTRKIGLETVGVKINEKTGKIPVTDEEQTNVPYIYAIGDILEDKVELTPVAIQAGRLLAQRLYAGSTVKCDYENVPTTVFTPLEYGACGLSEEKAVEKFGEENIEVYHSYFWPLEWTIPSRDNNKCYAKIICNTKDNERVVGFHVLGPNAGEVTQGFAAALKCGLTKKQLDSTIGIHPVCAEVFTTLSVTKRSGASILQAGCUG
UniProt Q16134: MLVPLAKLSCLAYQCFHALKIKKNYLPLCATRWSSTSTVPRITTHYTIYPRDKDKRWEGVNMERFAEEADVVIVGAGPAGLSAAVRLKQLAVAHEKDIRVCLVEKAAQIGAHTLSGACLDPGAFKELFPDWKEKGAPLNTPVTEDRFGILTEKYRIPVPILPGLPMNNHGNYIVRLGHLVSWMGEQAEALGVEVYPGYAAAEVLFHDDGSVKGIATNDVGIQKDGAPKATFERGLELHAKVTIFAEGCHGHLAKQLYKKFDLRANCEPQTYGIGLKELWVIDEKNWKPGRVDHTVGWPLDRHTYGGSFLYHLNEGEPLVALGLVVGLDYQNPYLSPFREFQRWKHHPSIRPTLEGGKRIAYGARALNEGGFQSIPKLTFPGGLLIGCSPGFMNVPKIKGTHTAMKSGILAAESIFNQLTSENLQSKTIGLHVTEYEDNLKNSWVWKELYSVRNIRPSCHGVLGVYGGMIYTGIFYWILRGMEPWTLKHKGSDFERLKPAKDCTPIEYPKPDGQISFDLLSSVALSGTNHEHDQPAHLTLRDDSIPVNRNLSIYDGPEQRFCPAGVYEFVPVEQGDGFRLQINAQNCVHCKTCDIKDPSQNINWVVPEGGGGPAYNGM
UniProt Q52LJ0: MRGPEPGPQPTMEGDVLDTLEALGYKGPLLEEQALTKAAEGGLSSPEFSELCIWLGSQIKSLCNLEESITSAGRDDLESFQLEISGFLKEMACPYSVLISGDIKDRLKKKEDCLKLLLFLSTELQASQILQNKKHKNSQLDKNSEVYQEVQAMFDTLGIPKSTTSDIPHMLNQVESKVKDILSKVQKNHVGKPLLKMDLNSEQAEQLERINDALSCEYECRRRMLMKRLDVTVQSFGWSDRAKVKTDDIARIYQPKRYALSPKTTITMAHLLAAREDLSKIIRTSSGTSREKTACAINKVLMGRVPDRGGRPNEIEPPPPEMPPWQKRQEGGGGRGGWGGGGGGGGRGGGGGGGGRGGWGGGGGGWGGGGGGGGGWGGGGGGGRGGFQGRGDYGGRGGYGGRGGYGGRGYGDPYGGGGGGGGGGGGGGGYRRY
UniProt Q15643: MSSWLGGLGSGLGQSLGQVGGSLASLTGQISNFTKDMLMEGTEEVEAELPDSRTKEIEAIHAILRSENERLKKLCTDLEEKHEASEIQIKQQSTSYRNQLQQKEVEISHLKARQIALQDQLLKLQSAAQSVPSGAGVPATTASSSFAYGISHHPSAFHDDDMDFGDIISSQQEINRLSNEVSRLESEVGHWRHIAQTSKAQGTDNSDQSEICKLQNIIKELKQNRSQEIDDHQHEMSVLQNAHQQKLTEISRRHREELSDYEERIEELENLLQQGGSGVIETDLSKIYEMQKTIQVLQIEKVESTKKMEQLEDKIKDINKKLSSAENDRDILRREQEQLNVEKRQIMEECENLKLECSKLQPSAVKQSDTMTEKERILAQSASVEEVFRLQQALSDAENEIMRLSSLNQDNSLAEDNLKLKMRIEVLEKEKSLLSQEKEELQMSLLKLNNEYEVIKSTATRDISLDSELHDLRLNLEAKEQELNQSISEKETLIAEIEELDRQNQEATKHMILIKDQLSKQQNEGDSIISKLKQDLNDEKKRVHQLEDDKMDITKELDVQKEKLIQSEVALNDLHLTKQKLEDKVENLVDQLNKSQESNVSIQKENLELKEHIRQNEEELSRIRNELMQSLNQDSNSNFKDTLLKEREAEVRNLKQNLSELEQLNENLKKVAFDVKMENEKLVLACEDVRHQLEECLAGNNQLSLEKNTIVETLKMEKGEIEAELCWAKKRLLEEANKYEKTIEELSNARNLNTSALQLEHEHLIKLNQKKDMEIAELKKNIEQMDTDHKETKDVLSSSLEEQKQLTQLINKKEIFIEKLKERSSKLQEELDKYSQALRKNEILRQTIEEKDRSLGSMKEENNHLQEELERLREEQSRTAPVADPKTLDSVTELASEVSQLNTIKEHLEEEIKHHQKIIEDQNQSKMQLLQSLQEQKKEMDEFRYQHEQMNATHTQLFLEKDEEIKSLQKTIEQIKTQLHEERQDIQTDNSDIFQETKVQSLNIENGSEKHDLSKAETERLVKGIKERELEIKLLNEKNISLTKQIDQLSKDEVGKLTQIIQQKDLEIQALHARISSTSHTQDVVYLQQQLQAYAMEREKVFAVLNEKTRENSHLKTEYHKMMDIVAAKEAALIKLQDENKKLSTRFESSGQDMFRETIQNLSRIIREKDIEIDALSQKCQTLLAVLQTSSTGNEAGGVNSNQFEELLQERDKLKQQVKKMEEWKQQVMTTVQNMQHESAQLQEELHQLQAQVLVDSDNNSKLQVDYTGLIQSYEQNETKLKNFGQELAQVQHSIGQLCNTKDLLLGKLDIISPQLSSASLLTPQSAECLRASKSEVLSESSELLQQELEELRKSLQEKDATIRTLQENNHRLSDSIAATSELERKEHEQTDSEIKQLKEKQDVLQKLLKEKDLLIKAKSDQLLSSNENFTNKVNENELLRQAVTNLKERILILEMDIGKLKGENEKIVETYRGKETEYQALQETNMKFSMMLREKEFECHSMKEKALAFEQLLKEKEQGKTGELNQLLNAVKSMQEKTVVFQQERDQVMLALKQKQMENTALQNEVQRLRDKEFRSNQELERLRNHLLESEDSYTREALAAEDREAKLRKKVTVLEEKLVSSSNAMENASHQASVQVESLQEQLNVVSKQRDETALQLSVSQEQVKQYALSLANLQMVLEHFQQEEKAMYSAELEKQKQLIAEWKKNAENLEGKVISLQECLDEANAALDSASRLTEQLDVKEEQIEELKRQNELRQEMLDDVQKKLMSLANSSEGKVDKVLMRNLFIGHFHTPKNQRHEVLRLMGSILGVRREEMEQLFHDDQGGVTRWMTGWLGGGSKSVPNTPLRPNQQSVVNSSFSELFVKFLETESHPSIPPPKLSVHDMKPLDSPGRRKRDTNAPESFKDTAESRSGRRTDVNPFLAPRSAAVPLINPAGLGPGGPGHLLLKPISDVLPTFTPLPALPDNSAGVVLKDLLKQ
UniProt Q2NKX8: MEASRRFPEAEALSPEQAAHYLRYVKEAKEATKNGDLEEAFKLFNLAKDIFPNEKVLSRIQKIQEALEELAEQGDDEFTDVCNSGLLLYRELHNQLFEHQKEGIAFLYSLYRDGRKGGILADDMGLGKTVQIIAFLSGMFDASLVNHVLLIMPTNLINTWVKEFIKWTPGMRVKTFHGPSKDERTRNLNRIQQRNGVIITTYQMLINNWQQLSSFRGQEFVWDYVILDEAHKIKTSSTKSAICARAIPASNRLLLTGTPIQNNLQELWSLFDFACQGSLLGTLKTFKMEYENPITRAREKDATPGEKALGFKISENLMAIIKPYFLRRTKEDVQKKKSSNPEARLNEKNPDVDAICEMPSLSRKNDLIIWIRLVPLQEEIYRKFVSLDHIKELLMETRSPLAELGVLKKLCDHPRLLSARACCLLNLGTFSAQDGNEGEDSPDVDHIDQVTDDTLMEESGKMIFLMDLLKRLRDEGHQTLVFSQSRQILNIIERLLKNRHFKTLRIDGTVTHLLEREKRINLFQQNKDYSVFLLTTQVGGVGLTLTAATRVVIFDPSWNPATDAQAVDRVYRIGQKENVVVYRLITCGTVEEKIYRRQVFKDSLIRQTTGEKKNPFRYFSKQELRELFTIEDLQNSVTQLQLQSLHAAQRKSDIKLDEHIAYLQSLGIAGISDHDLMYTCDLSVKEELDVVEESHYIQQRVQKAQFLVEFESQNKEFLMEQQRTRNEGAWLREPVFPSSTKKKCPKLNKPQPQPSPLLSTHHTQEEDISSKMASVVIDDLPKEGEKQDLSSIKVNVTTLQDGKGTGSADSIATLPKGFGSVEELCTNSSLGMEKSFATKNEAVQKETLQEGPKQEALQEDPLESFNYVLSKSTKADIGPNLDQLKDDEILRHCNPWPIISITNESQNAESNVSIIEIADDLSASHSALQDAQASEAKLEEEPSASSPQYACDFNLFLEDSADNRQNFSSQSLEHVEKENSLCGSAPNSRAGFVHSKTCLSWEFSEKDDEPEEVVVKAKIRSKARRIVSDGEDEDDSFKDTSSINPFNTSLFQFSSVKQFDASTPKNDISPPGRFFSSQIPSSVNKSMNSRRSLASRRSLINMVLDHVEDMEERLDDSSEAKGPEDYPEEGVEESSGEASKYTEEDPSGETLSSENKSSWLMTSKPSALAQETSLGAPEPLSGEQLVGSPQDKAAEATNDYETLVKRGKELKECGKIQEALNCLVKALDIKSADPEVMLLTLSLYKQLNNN

Compound: COC(=O)/C=C/c1ccccc1 [methyl cinnamate]
Test: log2 ratio of iodoacetamide-alkyne labeling of the cysteine site, DMSO over compound (competition); higher = stronger covalent engagement of the cysteine by the compound, active = 1 or more
Settings: 500 µM; treatment time 1 h; system: HEK293T cell lysate
How it was run: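 HEK293T lysate at 2 mg/mL was treated with vehicle or electrophile (500 µM) for 1 h at ambient temperature, then labelled with iodoacetamide alkyne (1 h), clicked to sCIP-TMT reagents, pooled, digested with trypsin overnight at 37 °C, enriched on streptavidin and eluted with acid. Peptides were analysed by Orbitrap Eclipse LC-MS/MS with FAIMS and quantified in FragPipe, using duplicate channels and three replicates, with cysteines quantified in only one replicate excluded. The log2 competition ratio for each cysteine is the mean control-channel reporter intensity divided by the mean compound-channel reporter intensity.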

log2 ratio of iodoacetamide-alkyne labeling, inactive:
TBC1D10B C590 (UniProt Q4KMP7) 0.102
SAFB C448 (UniProt Q15424) 0.0373
EFTUD2 C144 (UniProt Q15029) 0.0118
CEP55 C159 (UniProt Q53EZ4) -0.261
PCM1 C1999 (UniProt Q15154) -0.0893
SF3B4 C168 (UniProt Q15427) 0.00642
UniProt Q15370_C89 -0.379
PDS5A C327 (UniProt Q29RF7) 0.184
TXNRD1 C209 (UniProt Q16881) -0.242
UniProt Q15042_C678 -0.142
ETFDH C387 (UniProt Q16134) 0.0755
AMOT C741 (UniProt Q4VCS5) 0.0438
FAM98B C63 (UniProt Q52LJ0) -0.0358
TRIP11 C212 (UniProt Q15643) 0.0893
DHCR24 C91 (UniProt Q15392) 0.222
ERCC6L C825 (UniProt Q2NKX8) 0.215

2 records drawn at random from the list so far, as already listed:
log2 ratio of iodoacetamide-alkyne labeling, inactive:
TRIP11 C212 (UniProt Q15643) 0.0893
SF3B4 C168 (UniProt Q15427) 0.00642
